## Primary screen of a compound library

Measurements from “University of Dundee, Small-Polar-MMV Screening Library” (2021), ChEMBL document CHEMBL3988442.

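Whole-cell growth test on Mycobacterium tuberculosis, read after 3 days in glucose-containing 7H9 medium; the read-out is not stated. Concentration: 500 µM. Direction is inferred from retests: higher values go with more growth inhibition. About 18,000 compounds were tested under these conditions; 7.9% (about 1,400) showed 50% or more at least once.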

Results are given as percent effect. How 0% and 100% were set is not recorded. Most values in the screen are low, and negative values occur. Compounds were drawn at random from those tested, without regard to their results.

{"structure": "CCS(=O)(=O)N(C)c1ccc(C(N)=O)cc1", "effect": 17.34}
{"structure": "CC(=O)NCCNC(=O)c1cc(Cl)c(Cl)n1C", "effect": 19.12}
{"structure": "O=C(N[C@H]1COC[C@@H]1N1CCCCC1)c1cnc[nH]1", "effect": -3.824}
{"structure": "N#Cc1ccc(-n2nccc2N)cc1", "effect": 11.15}
{"structure": "CC(C)CC(C)(NCCCS(C)(=O)=O)C(N)=O", "stereo": "stereo not drawn", "effect": 2.568}
{"structure": "N#CC1CCCOC1", "stereo": "stereo not drawn", "effect": 34.09}
{"structure": "CN(C)C(=O)CN(C)S(=O)(=O)Cc1c(Cl)cccc1Cl", "effect": 15.95}
{"structure": "Cc1ccc(CC(C)N(C)C(=O)CCCN)cc1", "stereo": "stereo not drawn", "effect": 27.28}
{"structure": "CN1CCCN(C[C@@H]2CN(S(C)(=O)=O)C[C@@H]2CO)CC1", "effect": -29.56}
{"structure": "C[C@@H]1CN(CCC(=O)NC2CCCC2)CC[C@]1(C)O", "effect": 9.782}
{"structure": "O=C(CCc1ccc(O)cc1)N[C@@H]1CCNC[C@H]1O", "effect": 7.451}
{"structure": "Cc1cncc(CCN)n1", "effect": 3.644}
{"structure": "CNc1ncc(C(=O)N2CCNCC(O)C2)cn1", "stereo": "stereo not drawn", "effect": -5.663}
{"structure": "CS(=O)(=O)NCCC1=CCCCC1", "effect": 49.54}
{"structure": "CN1CCN(CCCNC(=O)c2ccccc2Cl)CC1", "effect": 10.34}
{"structure": "CCc1noc(C)c1C(=O)N(C)CC1(C)CCN(C)C1", "stereo": "stereo not drawn", "effect": 14.43}
{"structure": "CC(C)C(=O)NCCCNC(=O)c1ccccn1", "effect": 34.22}
{"structure": "O=C(CC1CCCC1)NCCc1noc(CO)n1", "effect": -8.465}
{"structure": "COC(=O)CN(CCn1cncn1)C1CCCC1", "effect": -5.218}
{"structure": "O=C1CN(CCC(=O)Nc2cc(Cl)ccc2Cl)CCN1", "effect": -12.99}
{"structure": "Cc1ncsc1CCN(C)C(=O)c1cnc(O)cn1", "effect": 5.499}
{"structure": "COc1ccc(CNCc2ccc(C(N)=O)cc2)cc1", "effect": 35.85}
{"structure": "CCC(N)c1ccc(F)cc1F", "stereo": "stereo not drawn", "effect": -2.125}
{"structure": "COc1ccc(S(N)(=O)=O)c(OC)c1OC", "effect": -0.06459}
{"structure": "Cn1cc(CN)c(C(F)(F)F)n1", "effect": -2.51}
{"structure": "CCc1cc(CNC(=O)c2ccc(F)c(F)c2)[nH]n1", "effect": 70.12}
{"structure": "O=C(NCC1CCS(=O)(=O)C1)N1CCCC1", "stereo": "stereo not drawn", "effect": 3.595}
{"structure": "c1cnn(CCN2CCCCC2Cn2cncn2)c1", "stereo": "stereo not drawn", "effect": 2.247}
{"structure": "N[C@@H]1C[C@@H](N2CCOCC2)C12CCC2", "effect": 7.545}
{"structure": "CCC(N)C(=O)Nc1ccc2c(c1)C(=O)CCC2", "stereo": "stereo not drawn", "effect": 56.59}
{"structure": "CNC(=O)[C@@H]1CCCN1CC1CCNCC1", "effect": 5.695}
{"structure": "O=C(c1ccon1)N(Cc1cccs1)CC1CCCO1", "stereo": "stereo not drawn", "effect": 31.12}
{"structure": "Oc1ccc(OCCN2CCOCC2)cc1", "effect": -9.223}

2 of the entries, repeated:

structure,effect
CCc1cc(CNC(=O)c2ccc(F)c(F)c2)[nH]n1,70.12
O=C1CN(CCC(=O)Nc2cc(Cl)ccc2Cl)CCN1,-12.99